Results taken from publication PMC8752127.
Results are given in words; binding and its absence hold for the method and conditions named. For some of these results: Binding seen in cells or lysates may run through a third protein. Some results given as binding are weak or reduced against the parent protein; the word gives no strength.

Amino acid sequences for entries named in this document (tags omitted).
UniProt Q15691: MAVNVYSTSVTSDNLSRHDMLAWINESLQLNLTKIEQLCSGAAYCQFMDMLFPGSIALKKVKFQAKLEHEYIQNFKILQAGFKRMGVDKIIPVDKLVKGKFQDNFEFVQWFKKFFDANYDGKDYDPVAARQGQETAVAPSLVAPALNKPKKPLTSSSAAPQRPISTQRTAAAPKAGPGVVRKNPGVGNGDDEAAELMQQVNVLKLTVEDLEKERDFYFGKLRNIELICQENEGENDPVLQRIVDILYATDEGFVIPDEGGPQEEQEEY

Key:
[1] = target: MBP-TTBK2^1033−1087 WT (human) (UniProt Q6IQ55); assay: pull-down; 30 μg purified MBP-TTBK2 1033-1087 constructs on amylose resin; 100 μg purified EB1 or CEP164-NTD-GFP added, optionally with a 10X molar excess of CEP164-NTD or EB1-GFP; PBS, 0.1% IGEPAL CA-630, 2 mM DTT; 1 h, 4°C; Coomassie-stained gel; both purified
[2] = target: MBP-TTBK2^1033−1087, TTBK2^(1076−1078 RPP to AAA) (human) (UniProt Q6IQ55); assay: as above
[3] = target: 3xFLAG tagged human EB1 (human) (UniProt Q15691); assay: pull-down; 3xFLAG-EB1 from 293 lysate on anti-FLAG M2 affinity gel; cleared lysates with 3xHA-TTBK2 constructs mixed with ~0.4 mg/ml recombinant GST-CEP164 1-109 (WT or Y73A); PBS, 0.1% IGEPAL CA-630, 0.1 mM DTT; 1 h, 4°C; Western blot

binding [1] | binding [2] | binding [3] | Substance
binds | binds |  | EB1, untagged, purified (from UniProt Q15691 1-268)
 |  | binds | 3xHA-TTBK2 carrying a deletion of its proline-rich region 1,074–1,087 (ΔPro.) (from UniProt Q6IQ55 1-1244) (enzyme)
 |  | binds | 3xHA-tagged human TTBK2, full length, WT (from UniProt Q6IQ55 1-1244) (enzyme)
